Reference: article PMC10163288
The other results are listed elsewhere or left out.

B1: il2ra_site1_3nfp_normal_mot_HHH_b1_07440_af2_000000231_0001_1_19_H_._HHH_b1_04788_0001_0000400025_0000001_0 (protein)
chain: SSSSSERLIEDVLRSAERLEELAEELGDEELRKEVEELYEELRKHNDPEALQRLLRLAWEFSSSS
B2: il2ra_site2_2erj_sap_22_mot_HHH_b1_07609_af2_000000145_0001_21_36_H_._HHH_b2_04596_0001_0000200002_0000001_0_0001 (protein)
chain: SSSSDEELRELFRLISELLHLVSNGDEEEARELAEELKKLAQETNSPNAEEHIEANLRKVTSSSS
B3: il2ra_site2_3nfp_sap_18_mot_HHH_b2_06150_000000217_0001_39_53_H_._HHH_b2_00252_0001_0000700027_0000001_0_0001 (protein)
chain: SSSSDYEEKIKELEEEAKELEEEGNPEEAYRVIAKAAVIAWENNDTETYMKLAELAFEIAQSSSS
B4: il2ra_site2_3nfp_normal_mot_HHH_b1_02096_000000221_0001_22_38_H_._HHH_b1_01329_af2_0001_0000100001_0000001_0 (protein)
chain: SSSSSEEEAEEAVEAAIRLARERGDEEVLEELERLLEEARKEGDYRLLMEAYALIQELALESSSS
B5: il2ra_site1_1z92_normal_mot_HHH_b2_04375_000000267_0001_42_56_H_._HHH_b2_07094_0001_0000200008_0000001_0 (protein)
chain: SSSSSSLEEIAREIVEELVEEYGLSEEDKEALEKDAELLVRLGFSPRSIEIALRSAAERASSSSS
B6: il2ra_site1_2b5i_normal_mot_f5ff40796168375b462bec8614a1db4a_0001_1_000000138_0001_53_65_H_._HHH_b1_07140_af2_0001_0000300020_0000001_0_af2pred_dldesign_0_af2pr … (protein)
chain: SSSSSDLRELVRELVEEAERLEKEGKPELARKLLILARRLAKKAKDEELVAELEAKLKELESSSS
B7: il2ra_site2_2erj_normal_mot_HHH_b2_01353_af2_000000049_0001_23_39_H_._HHH_b1_04928_af2_0001_0001100046_0000001_0 (protein)
chain: SSSDLEEEVKELLEEAEELLKEGNPEEAEEVLREASEIVFQLGNFELFDRVLELLHEIARLQSSS
B8: il2ra_site1_2b5i_normal_mot_HHH_b2_06557_000000121_0001_42_56_H_._375b083c3fa73620112447366e1c9e02_0001_1_0001_0000200028_0000001_0_af2pred_0001_af2pred (protein)
chain: DEEVEELEELLEKAEDPRERAKLLRELAKLIRRDPRLRELATEVVARVHDIPPEHARKFLELLAS
B9: il2ra_site2_3nfp_sap_23_mot_HHH_b2_04319_af2_000000252_0001_42_56_H_._1119cc3ece11f8544cf99e05e324817a_0001_1_af2_0001_0000200031_0000001_0_0001 (protein)
chain: SSSSDEAEKLLLLIYRLLKEGDTEEAEELLERLKELIEKLGDPDLERLARIAELALEDANSSSSS
B10: il2ra_site1_3nfp_sap_17_mot_891b8491a18eb46c9ad5c1702b87f9cc_0001_000000120_0001_18_33_H_._HHH_b1_05006_af2_0001_0000100002_0000001_0_0001_af2pred_0001_af2pred (protein)
chain: SSSSTDVAREFEEIAREVQKLLQEGDHEEAEELIERLEELARERNDEAAKLLVKRLKRKASSSSS
B11: il2ra_site1_1z92_sap_23_mot_HHH_b2_06255_000000058_0001_43_57_H_._HHH_b1_03673_0001_0000700042_0000001_0_0001 (protein)
chain: SSSSSSERAIRWALELLEAAVRLNNEEQQEFLVRDARLLAENSNNPEARELVEEMEELLGSSSSS
B12: il2ra_site2_2erj_sap_31_mot_3b06bd03f1c6bceadc68eab912867b79_0001_000000296_0001_36_50_H_._HHH_b2_05768_0001_0000500009_0000001_0_0001_af2pred_0001_af2pred (protein)
chain: SSSSSEDEEEVEELLRQAEEAAKRDPERAFRLLLEALEIALKSNNEELERLVLEVSLRIVHSSSS
B13: il2ra_site1_2b5i_sap_9_mot_819758749a7565068ab34538b75d2992_0001_1_000000083_0001_35_49_H_._d48bb16d323c7c55e6503d01bab6ca6d_0001_af2_0001_0000200071_0000001_0_ … (protein)
chain: SSSSSSSAEEILARAKAEAAAVNRREALLTLDKAHKEVDALGDEELADEIERLARELLKSSSSSS
B14: il2ra_site1_2b5i_sap_22_mot_HHH_b1_00368_000000051_0001_1_18_H_._HHH_b2_06351_af2_0001_0000800038_0000001_0_0001 (protein)
chain: SSSSDEEVSRYALEVLRELWKLLSSGDPEEAKRLLEEAEEFLRERNDPTAVRDLQRLVEIGSSSS
B15: il2ra_site2_2erj_normal_mot_HHH_b1_00920_af2_000000121_0001_18_35_H_._HHH_b1_07577_0001_0000300020_0000001_0_af2pred_0001_af2pred (protein)
chain: SSSSDEEVEEAFELAAEVLLELLEEGDEELARELYELLDRLIRHGDPRIAKELEEFLEKLSSSSS
B16: il2ra_site2_2erj_sap_26_mot_HHH_b1_04373_af2_000000118_0001_18_33_H_._HHH_b2_03966_0001_0000600025_0000001_0_0001_af2pred_0001_1_af2pred_swapped (protein)
chain: SSSDEESERIALFARLMAEYAEEQGDPELARRSLELAIRRLRELGDEEFVEELERLLEELNSSSS
B17: il2ra_site2_3nfp_normal_mot_HHH_b1_00660_af2_000000090_0001_40_57_H_._HHH_b1_04936_0001_0000200021_0000001_0_af2pred_0001_1_af2pred_swapped (protein)
chain: SSSSSDQEVRELLEEARELLEEGDPEEAEEVLRRASQIAFELQNHELFALVVRLLEEILQSSSSS
B18: il2ra_site1_1z92_sap_19_mot_HHH_b1_08133_000000026_0001_1_19_H_._HHH_b2_05485_0001_0000100003_0000001_0_0001 (protein)
chain: SEERMHEMALRYAGDPERALRILLKIARAFGDEEVVELIEELLERVRRGEIPPEEAVELAVRLVA
B19: il2ra_site1_2b5i_sap_14_mot_HHH_b1_03046_af2_000000154_0001_39_55_H_._HHH_b1_00888_af2_0001_0000300015_0000001_0_0001_af2pred_dldesign_0_af2pred (protein)
chain: SSSSSSEDAREQVDELIEEAKKLEDPLERRKILTLARLIAKKAKDEELLKRIEEVEAELSSSSSS

What follows are binders tested against il2ra, P01589 (assay: yeast display titration).

Apparent Kd, inactive:
B1 no binding seen
B2 no binding seen
B3 no binding seen
B4 no binding seen
B5 no binding seen
B6 no binding seen
B7 no binding seen
B8 no binding seen
B9 no binding seen
B10 no binding seen
B11 no binding seen
B12 no binding seen
B13 no binding seen
B14 no binding seen
B15 no binding seen
B16 no binding seen
B17 no binding seen
B18 no binding seen
B19 no binding seen
